Values quoted from earlier work in US9744237B2, “Method and system for effecting changes in pigmented tissue” (priority 2009, dated 2017).
For at least one compound, name, drawing or mass did not settle the structure. Some entries share one result that the patent states for a list of compounds.

Tested on: tyrosinase

O=C(NCc1ccc(O)cc1)c1cc(O)cc(O)c1 [3,5,4′-Trihydroxyl derivatives]
RAa (N-Benzylbenzamides, RAa and F not defined in the patent): < 0.1 F

O=C1c2c(O)cc(O)cc2O[C@H](c2ccc(O)cc2O)[C@H]1O [Dihydromorin, (5,7,2′,4′)-tetrahydroxyflavanol]
RAb (relative activity of tyrosinase inhibitor, RAb and F not defined in the patent): 0.5 F
